Measurements from article PMC3113324, “AKAP5 and AKAP12 Form Homo-oligomers” (Journal of Molecular Signaling, 2011).
No constants are given. Whether binding was seen depends on the method and setting. For some of these results: Tags and fused reporters may be left off the sequences shown. One block for each binder: values may come before it.

What was measured:
[1] = molecular target: His-tagged human AKAP12 (human) (UniProt Q02952); test: SDS-PAGE in 8 M urea; purified His-tagged proteins treated with and resolved on SDS-PAGE in the presence of 8 M urea; Coomassie staining and immunoblotting; both purified
[2] = molecular target: His-tagged AKAP12 (1-840) (human) (UniProt Q02952); test: as above
[3] = molecular target: His-tagged AKAP12 (840-1782) (human) (UniProt Q02952); test: as above
[4] = molecular target: HA-tagged full-length AKAP12 (1-1782) (human) (UniProt Q02952); test: SDS-PAGE in 8 M urea; whole-cell lysates of HEK293 cells treated with and resolved on SDS-PAGE in the presence of 8 M urea; immunoblot with anti-HA or anti-AKAP12

binding [1]: no binding (condition: with 8 M urea)
B1: His-tagged human AKAP12 (natural protein, UniProt Q02952 1-1782, looked up)
chain: MGAGSSTEQRSPEQPPEGSSTPAEPEPSGGGPSAEAAPDTTADPAIAASDPATKLLQKNGQLSTINGVAEQDELSLQEGDLNGQKGALNGQGALNSQEEEEVIVTEVGQRDSEDVSKRDSDKEMATKSAVVHDITDDGQEETPEIIEQIPSSESNLEELTQPTESQANDIGFKKVFKFVGFKFTVKKDKTEKPDTVQLLTVKKDEGEGAAGAGDHKDPSLGAGEAASKESEPKQSTEKPEETLKREQSHAEISPPAESGQAVEECKEEGEEKQEKEPSKSAESPTSPVTSETGSTFKKFFTQGWAGWRKKTSFRKPKEDEVEASEKKKEQEPEKVDTEEDGKAEVASEKLTASEQAHPQEPAESAHEPRLSAEYEKVELPSEEQVSGSQGPSEEKPAPLATEVFDEKIEVHQEEVVAEVHVSTVEERTEEQKTEVEETAGSVPAEELVEMDAEPQEAEPAKELVKLKETCVSGEDPTQGADLSPDEKVLSKPPEGVVSEVEMLSSQERMKVQGSPLKKLFTSTGLKKLSGKKQKGKRGGGDEESGEHTQVPADSPDSQEEQKGESSASSPEEPEEITCLEKGLAEVQQDGEAEEGATSDGEKKREGVTPWASFKKMVTPKKRVRRPSESDKEDELDKVKSATLSSTESTASEMQEEMKGSVEEPKPEEPKRKVDTSVSWEALICVGSSKKRARRGSSSDEEGGPKAMGGDHQKADEAGKDKETGTDGILAGSQEHDPGQGSSSPEQAGSPTEGEGVSTWESFKRLVTPRKKSKSKLEEKSEDSIAGSGVEHSTPDTEPGKEESWVSIKKFIPGRRKKRPDGKQEQAPVEDAGPTGANEDDSDVPAVVPLSEYDAVEREKMEAQQAQKSAEQPEQKAATEVSKELSESQVHMMAAAVADGTRAATIIEERSPSWISASVTEPLEQVEAEAALLTEEVLEREVIAEEEPPTVTEPLPENREARGDTVVSEAELTPEAVTAAETAGPLGAEEGTEASAAEETTEMVSAVSQLTDSPDTTEEATPVQEVEGGVPDIEEQERRTQEVLQAVAEKVKEESQLPGTGGPEDVLQPVQRAEAERPEEQAEASGLKKETDVVLKVDAQEAKTEPFTQGKVVGQTTPESFEKAPQVTESIESSELVTTCQAETLAGVKSQEMVMEQAIPPDSVETPTDSETDGSTPVADFDAPGTTQKDEIVEIHEENEVASGTQSGGTEAEAVPAQKERPPAPSSFVFQEETKEQSKMEDTLEHTDKEVSVETVSILSKTEGTQEADQYADEKTKDVPFFEGLEGSIDTGITVSREKVTEVALKGEGTEEAECKKDDALELQSHAKSPPSPVEREMVVQVEREKTEAEPTHVNEEKLEHETAVTVSEEVSKQLLQTVNVPIIDGAKEVSSLEGSPPPCLGQEEAVCTKIQVQSSEASFTLTAAAEEEKVLGETANILETGETLEPAGAHLVLEEKSSEKNEDFAAHPGEDAVPTGPDCQAKSTPVIVSATTKKGLSSDLEGEKTTSLKWKSDEVDEQVACQEVKVSVAIEDLEPENGILELETKSSKLVQNIIQTAVDQFVRTEETATEMLTSELQTQAHVIKADSQDAGQETEKEGEEPQASAQDETPITSAKEESESTAVGQAHSDISKDMSEASEKTMTVEVEGSTVNDQQLEEVVLPSEEEGGGAGTKSVPEDDGHALLAERIEKSLVEPKEDEKGDDVDDPENQNSALADTDASGGLTKESPDTNGPKQKEKEDAQEVELQEGKVHSESDKAITPQAQEELQKQERESAKSELTES
notes: A-kinase-anchoring protein 12 (AKAP12, gravin, SSECKS), human, full length (1-1782), calculated MW 191.5 kDa; also called gravin; SSECKS; source: E. coli, purified by gel filtration chromatography (Superose 12)

binding [4]: no binding (condition: with 8 M urea)
B4: HA-tagged full-length AKAP12 (1-1782) (natural protein, human, UniProt Q02952 1-1782, looked up)
chain: MGAGSSTEQRSPEQPPEGSSTPAEPEPSGGGPSAEAAPDTTADPAIAASDPATKLLQKNGQLSTINGVAEQDELSLQEGDLNGQKGALNGQGALNSQEEEEVIVTEVGQRDSEDVSKRDSDKEMATKSAVVHDITDDGQEETPEIIEQIPSSESNLEELTQPTESQANDIGFKKVFKFVGFKFTVKKDKTEKPDTVQLLTVKKDEGEGAAGAGDHKDPSLGAGEAASKESEPKQSTEKPEETLKREQSHAEISPPAESGQAVEECKEEGEEKQEKEPSKSAESPTSPVTSETGSTFKKFFTQGWAGWRKKTSFRKPKEDEVEASEKKKEQEPEKVDTEEDGKAEVASEKLTASEQAHPQEPAESAHEPRLSAEYEKVELPSEEQVSGSQGPSEEKPAPLATEVFDEKIEVHQEEVVAEVHVSTVEERTEEQKTEVEETAGSVPAEELVEMDAEPQEAEPAKELVKLKETCVSGEDPTQGADLSPDEKVLSKPPEGVVSEVEMLSSQERMKVQGSPLKKLFTSTGLKKLSGKKQKGKRGGGDEESGEHTQVPADSPDSQEEQKGESSASSPEEPEEITCLEKGLAEVQQDGEAEEGATSDGEKKREGVTPWASFKKMVTPKKRVRRPSESDKEDELDKVKSATLSSTESTASEMQEEMKGSVEEPKPEEPKRKVDTSVSWEALICVGSSKKRARRGSSSDEEGGPKAMGGDHQKADEAGKDKETGTDGILAGSQEHDPGQGSSSPEQAGSPTEGEGVSTWESFKRLVTPRKKSKSKLEEKSEDSIAGSGVEHSTPDTEPGKEESWVSIKKFIPGRRKKRPDGKQEQAPVEDAGPTGANEDDSDVPAVVPLSEYDAVEREKMEAQQAQKSAEQPEQKAATEVSKELSESQVHMMAAAVADGTRAATIIEERSPSWISASVTEPLEQVEAEAALLTEEVLEREVIAEEEPPTVTEPLPENREARGDTVVSEAELTPEAVTAAETAGPLGAEEGTEASAAEETTEMVSAVSQLTDSPDTTEEATPVQEVEGGVPDIEEQERRTQEVLQAVAEKVKEESQLPGTGGPEDVLQPVQRAEAERPEEQAEASGLKKETDVVLKVDAQEAKTEPFTQGKVVGQTTPESFEKAPQVTESIESSELVTTCQAETLAGVKSQEMVMEQAIPPDSVETPTDSETDGSTPVADFDAPGTTQKDEIVEIHEENEVASGTQSGGTEAEAVPAQKERPPAPSSFVFQEETKEQSKMEDTLEHTDKEVSVETVSILSKTEGTQEADQYADEKTKDVPFFEGLEGSIDTGITVSREKVTEVALKGEGTEEAECKKDDALELQSHAKSPPSPVEREMVVQVEREKTEAEPTHVNEEKLEHETAVTVSEEVSKQLLQTVNVPIIDGAKEVSSLEGSPPPCLGQEEAVCTKIQVQSSEASFTLTAAAEEEKVLGETANILETGETLEPAGAHLVLEEKSSEKNEDFAAHPGEDAVPTGPDCQAKSTPVIVSATTKKGLSSDLEGEKTTSLKWKSDEVDEQVACQEVKVSVAIEDLEPENGILELETKSSKLVQNIIQTAVDQFVRTEETATEMLTSELQTQAHVIKADSQDAGQETEKEGEEPQASAQDETPITSAKEESESTAVGQAHSDISKDMSEASEKTMTVEVEGSTVNDQQLEEVVLPSEEEGGGAGTKSVPEDDGHALLAERIEKSLVEPKEDEKGDDVDDPENQNSALADTDASGGLTKESPDTNGPKQKEKEDAQEVELQEGKVHSESDKAITPQAQEELQKQERESAKSELTES
notes: AKAP12, human, full length (1-1782); also called HA-AKAP12; HA-tagged AKAP12; source: HEK293, transfected (pcDNA3.1), in whole-cell lysate

The remaining lines, values behind:

B2: His-tagged AKAP12 (1-840) (domain or fragment, human, UniProt Q02952 1-840, looked up)
chain: MGAGSSTEQRSPEQPPEGSSTPAEPEPSGGGPSAEAAPDTTADPAIAASDPATKLLQKNGQLSTINGVAEQDELSLQEGDLNGQKGALNGQGALNSQEEEEVIVTEVGQRDSEDVSKRDSDKEMATKSAVVHDITDDGQEETPEIIEQIPSSESNLEELTQPTESQANDIGFKKVFKFVGFKFTVKKDKTEKPDTVQLLTVKKDEGEGAAGAGDHKDPSLGAGEAASKESEPKQSTEKPEETLKREQSHAEISPPAESGQAVEECKEEGEEKQEKEPSKSAESPTSPVTSETGSTFKKFFTQGWAGWRKKTSFRKPKEDEVEASEKKKEQEPEKVDTEEDGKAEVASEKLTASEQAHPQEPAESAHEPRLSAEYEKVELPSEEQVSGSQGPSEEKPAPLATEVFDEKIEVHQEEVVAEVHVSTVEERTEEQKTEVEETAGSVPAEELVEMDAEPQEAEPAKELVKLKETCVSGEDPTQGADLSPDEKVLSKPPEGVVSEVEMLSSQERMKVQGSPLKKLFTSTGLKKLSGKKQKGKRGGGDEESGEHTQVPADSPDSQEEQKGESSASSPEEPEEITCLEKGLAEVQQDGEAEEGATSDGEKKREGVTPWASFKKMVTPKKRVRRPSESDKEDELDKVKSATLSSTESTASEMQEEMKGSVEEPKPEEPKRKVDTSVSWEALICVGSSKKRARRGSSSDEEGGPKAMGGDHQKADEAGKDKETGTDGILAGSQEHDPGQGSSSPEQAGSPTEGEGVSTWESFKRLVTPRKKSKSKLEEKSEDSIAGSGVEHSTPDTEPGKEESWVSIKKFIPGRRKKRPDGKQEQAPVEDAGPTGANEDD
notes: AKAP12, human, N-terminal fragment, residues 1-840, in pET28b(+); also called N-terminal (1-840) fragment of AKAP12; source: E. coli, purified (Ni-NTA)
binding [2]: no binding (condition: with 8 M urea)

B3: His-tagged AKAP12 (840-1782) (domain or fragment, human, UniProt Q02952 840-1782, looked up)
chain: DSDVPAVVPLSEYDAVEREKMEAQQAQKSAEQPEQKAATEVSKELSESQVHMMAAAVADGTRAATIIEERSPSWISASVTEPLEQVEAEAALLTEEVLEREVIAEEEPPTVTEPLPENREARGDTVVSEAELTPEAVTAAETAGPLGAEEGTEASAAEETTEMVSAVSQLTDSPDTTEEATPVQEVEGGVPDIEEQERRTQEVLQAVAEKVKEESQLPGTGGPEDVLQPVQRAEAERPEEQAEASGLKKETDVVLKVDAQEAKTEPFTQGKVVGQTTPESFEKAPQVTESIESSELVTTCQAETLAGVKSQEMVMEQAIPPDSVETPTDSETDGSTPVADFDAPGTTQKDEIVEIHEENEVASGTQSGGTEAEAVPAQKERPPAPSSFVFQEETKEQSKMEDTLEHTDKEVSVETVSILSKTEGTQEADQYADEKTKDVPFFEGLEGSIDTGITVSREKVTEVALKGEGTEEAECKKDDALELQSHAKSPPSPVEREMVVQVEREKTEAEPTHVNEEKLEHETAVTVSEEVSKQLLQTVNVPIIDGAKEVSSLEGSPPPCLGQEEAVCTKIQVQSSEASFTLTAAAEEEKVLGETANILETGETLEPAGAHLVLEEKSSEKNEDFAAHPGEDAVPTGPDCQAKSTPVIVSATTKKGLSSDLEGEKTTSLKWKSDEVDEQVACQEVKVSVAIEDLEPENGILELETKSSKLVQNIIQTAVDQFVRTEETATEMLTSELQTQAHVIKADSQDAGQETEKEGEEPQASAQDETPITSAKEESESTAVGQAHSDISKDMSEASEKTMTVEVEGSTVNDQQLEEVVLPSEEEGGGAGTKSVPEDDGHALLAERIEKSLVEPKEDEKGDDVDDPENQNSALADTDASGGLTKESPDTNGPKQKEKEDAQEVELQEGKVHSESDKAITPQAQEELQKQERESAKSELTES
notes: AKAP12, human, C-terminal fragment, residues 840-1782, in pET28b(+); also called C-terminal (840-1782) fragment of AKAP12; source: E. coli, purified (Ni-NTA)
binding [3]: no binding (condition: with 8 M urea)
